Cell number change and AC50 data for 60 compounds are collected here from PubChem BioAssay AID2685 (National Center for Advancing Translational Sciences (NCATS), 2010).

Some of the results follow. Shown are side measurements of this screen, not its main read-out; they come without a call. Most of these compounds were active or inconclusive in the main read-out, so they are no random draw. Potencies come from curve fits of mixed quality, noted in brackets.

A short description of this assay: qHTS Assay for Lipid Storage Modulators in Drosophila S3 Cells.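 As to Cell number change: cells counted by Cell Tracker Red CMTPX staining in the red channel.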 Particulars: BODIPY lipid droplet fluorescence, 18-24 h; for cell number change: measured here: cell count max response, cells fed with added oleic acid. In a few lines: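 Drosophila S3 cells got compounds at several concentrations plus oleic acid (400 uM solution). Laser-scanning cytometry with 488 nm excitation read lipid droplets at 500-530 nm and cells at 575-640 nm. Percent activity was relative to 20 uM Triacsin C.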

Setting [1] is: measured here: lipid fluorescence (Fed channel) AC50, cells fed with added oleic acid.
Where [2] appears, read: measured here: cell number channel AC50, cells fed with added oleic acid.

In the case of `C[n+]1ccccc1COc1ccc(C(C)(C)C)cc1`, the cell number change was 17.3%. For the same compound, the half-maximal activity concentration (AC50) under setting [1] is 0.411 µM [falling, full curve].

As to `c1ccc(CN2CCN(c3cnc4ccccc4n3)CC2)cc1`, the cell number change is -39.5%. Moreover, under setting [2], the half-maximal activity concentration (AC50) was 29.1 µM [falling, single point]. Under setting [1], the AC50 was 29.1 µM [falling, single point].

As for `CC(=O)C1[C@H](N(C)C)CC2C3CC=C4CC(O)CC[C@]4(C)C3CC[C@@]21C` (stereo partly specified), the cell number change is -31.5%.

With `Cn1c(O)c(C=NC(CC(N)=O)C(=O)O)c(=O)n(C)c1=O` (stereo unspecified), the cell number change was determined as 4.97%. Also, the concentration at half-maximal activity (AC50) under setting [2] is 0.00651 µM [falling, full curve, poor fit]. Besides, under setting [1], the AC50 is 0.00461 µM [falling, full curve, poor fit].

As to `COc1ccc(N2CCN(S(=O)(=O)c3cccc4nsnc34)CC2)cc1`, the cell number change was -0.772%.

With `COc1ccc2nc(N3CCCC(C(=O)NCCc4ccc(OC)c(OC)c4)C3)sc2c1` (stereo unspecified), the cell number change is -5.86%. In addition, under setting [1], the AC50 was 29.1 µM [falling, single point].

In the case of `CCN1CCN(C(=O)C(C)Nc2cc(Cl)c(OC)cc2OC)CC1` (stereo unspecified), the cell number change is 10.1%. Also, the AC50 under setting [2] was 0.116 µM [falling, full curve, poor fit].

As for `O/C(=C\c1nc2ccccc2[nH]1)c1cccs1`, the cell number change worked out at 14.1%. Moreover, the AC50 under setting [1] is 29.1 µM [falling, single point].

In the case of `CCCN(CCC)Cc1c(C(=O)N/N=C/c2ccsc2)nnn1-c1nonc1N`, the cell number change came out at 12.2%. Also, the AC50 under setting [1] is 0.58 µM [falling, single point].

`COCCCNC(=O)Cn1nnc(-c2ccc(NC(=O)c3cccnc3)cc2)n1`: the cell number change was determined as 75.2%. Also, the half-maximal activity concentration (AC50) under setting [2] was 9.2 µM [rising, partial curve]. Further, under setting [1], the AC50 was 14.6 µM [rising, partial curve].

For `CCOC(=O)c1c(-c2ccc(-c3ccccc3)cc2)csc1NC(=O)CNCCN(C)C`, the cell number change was -62.1%. Also, the AC50 under setting [2] is 29.1 µM [falling, single point]. Besides, the AC50 under setting [1] was 29.1 µM [falling, single point].

`Cc1cccc(C)c1NC(=O)COC(=O)C1CC1`: the cell number change came out at 13.7%. In addition, the AC50 under setting [2] was 0.58 µM [rising, full curve, poor fit]. For the same compound, the AC50 under setting [1] is 0.326 µM [rising, full curve].

For `Cn1cc(C(=O)N/N=C/c2ccc3c(c2)OCO3)c2ccccc21`, the cell number change was -2.22%. The AC50 under setting [1] was 23.1 µM [rising, single point].

On to `CCOC(=O)c1ccc(NC(=O)CSc2nnc(C)n2-c2ccccc2)cc1`, for which the cell number change is -34.8%. Under setting [2], the concentration at half-maximal activity (AC50) is 0.0058 µM [falling, full curve, poor fit].

Turning to `O=C(CSc1nc(O)c(Cc2ccccc2)c(=O)[nH]1)Nc1nc2c(s1)CCCC2`, the cell number change was -11.8%. Also, the AC50 under setting [1] was 29.1 µM [falling, single point].

`COc1ccc(-c2cc(C(=O)Nc3cc(C)nn3-c3ccccc3)no2)cc1`: the cell number change was determined as 8.27%.

`Cc1ccc2nc(/C(C#N)=C\c3ccc(N4CCOCC4)o3)[nH]c2c1`: the cell number change is -48.3%. The AC50 under setting [2] was 8.2 µM [falling, single point].

`COC(=O)[C@H]1Cc2c([nH]c3ccccc23)[C@H](c2ccccc2)N1`: the cell number change was determined as 25%.

In the case of `COc1ccc(S(=O)(=O)N2CCOCC2)cc1NC(=O)COc1cccnc1[N+](=O)[O-]`, the cell number change is 38.1%.

On to `CCCCn1c(SCC(=O)NCc2cccs2)nc2c1c(=O)n(C)c(=O)n2C`, for which the cell number change was 20.9%. In addition, the AC50 under setting [2] is 1.46 µM [rising, full curve]. Further, the AC50 under setting [1] was 0.92 µM [rising, full curve].

Regarding `Cc1ccc(S(=O)(=O)N2CCC(C(=O)NCC(C)(C)N3CCOCC3)CC2)c(C)c1`, the cell number change turned out to be 0.414%.

Turning to `O=C(O)c1cccnc1Sc1ccc(Br)cc1`, the cell number change is 19.8%. In addition, the AC50 under setting [1] is 11.6 µM [rising, single point].

Turning to `COc1ccc(CNC(=O)CN2C(=O)NC(C)(c3cccc4ccccc34)C2=O)cc1OC` (stereo unspecified), under setting [1], the AC50 was 10.3 µM [falling, partial curve].

Regarding `Cn1c(=O)oc2cc(S(=O)(=O)N3CCN(c4cccc(Cl)c4)CC3)ccc21`, the cell number change is 15.5%. Moreover, the concentration at half-maximal activity (AC50) under setting [1] is 0.00461 µM [falling, full curve, poor fit].

For `O=C(N/N=C\c1cc2c(cc1[N+](=O)[O-])OCO2)c1cccs1`, the cell number change was -18.1%. Besides, the AC50 under setting [1] was 3.66 µM [rising, partial curve].

As for `COCCn1c(SCC(=O)Nc2sccc2C(N)=O)nnc1-c1ccncc1`, the cell number change was 18.6%. Also, the AC50 under setting [1] was 0.0058 µM [rising, full curve, poor fit].

Turning to `CCN(C(=O)CSc1nc2nc(C)cc(C)n2n1)c1cccc(C)c1`, the cell number change was found to be 29.6%. The AC50 under setting [2] is 5.17 µM [falling, single point].

Turning to `COC(=O)/C=C1/S/C(=N/NC(=O)c2ccc(Cl)cc2Cl)NC1=O`, the cell number change came to 31%. For the same compound, the AC50 under setting [2] was 18.4 µM [rising, single point].

For the compound `S=C(Nc1ccc(Br)cc1Cl)N1CCN(c2ccccn2)CC1`, the AC50 under setting [2] is 5.8 µM [rising, partial curve, poor fit].

`COc1ccc(NC(=O)COC(=O)/C=C/C(=O)OCC(=O)Nc2ccc(OC)c(Cl)c2)cc1Cl`: the cell number change amounted to 3.79%. Besides, under setting [1], the half-maximal activity concentration (AC50) was 4.61 µM [rising, single point].

Take `CCCN(C(=O)COC(=O)CC1CCCCC1)c1c(N)n(Cc2ccccc2)c(=O)[nH]c1=O`: the cell number change was 81.8%.

`NS(=O)(=O)c1ccc(NC=C2C(=O)OC3(CCCCC3)OC2=O)cc1`: the cell number change was 2.72%. Moreover, under setting [1], the AC50 was 29.1 µM [rising, single point].

On to `Cc1ccc(C(C)C)c(OCc2nnc(SCC(=O)Nc3nccs3)n2C)c1`, for which the AC50 under setting [2] was 0.461 µM [rising, single point].

In the case of `COc1ccc(CCNC(=O)c2c(O)c3ccccc3n(C)c2=O)cc1`, the cell number change was 6.35%.

As to `COc1ccc([N+](=O)[O-])cc1NC(=O)C(C)OC(=O)C1CC(=O)N(Cc2ccco2)C1` (stereo unspecified), the cell number change turned out to be 11.2%.

In the case of `Cc1cc(N=Nc2ccccc2)c(NCC(O)C(O)C(O)CO)cc1C` (stereo unspecified), the cell number change is -29%. The AC50 under setting [1] was 13 µM [falling, partial curve, poor fit].

Take `Cc1oc(-c2ccc(Cl)cc2)nc1CN1CCC(C(=O)NCCCN2CCCC2=O)CC1`: the cell number change was 1.53%. Besides, under setting [1], the AC50 is 0.461 µM [rising, full curve].

`CCOc1ccc(NC(=O)CN2C(=O)NC3(CCCC3)C2=O)cc1S(=O)(=O)N1CCCCC1`: the cell number change stood at 18.2%. Further, the AC50 under setting [1] was 2.31 µM [falling, single point].

Take `O=C(N/N=C/c1ccccn1)C(O)c1ccccc1` (stereo unspecified): the AC50 under setting [2] is 4.61 µM [falling, single point].

On to `CCOc1ccc(CCNC(=O)COC(=O)c2ccc(C)c([N+](=O)[O-])c2)cc1OCC`, for which the cell number change was -53.5%. In addition, under setting [2], the concentration at half-maximal activity (AC50) was 4.61 µM [falling, full curve, poor fit]. Also, the AC50 under setting [1] is 11.6 µM [falling, single point].

Consider `COCCn1c(SCC(=O)Nc2sc(C)c(C)c2C#N)nnc1-c1ccc(OC)cc1`, for which the cell number change was -9.99%. Under setting [1], the AC50 was 0.82 µM [rising, full curve, poor fit].

On to `CCCC(=O)N(Cc1cc(=O)[nH]c2ccccc12)c1cccc(C)c1`, for which the cell number change is 21.5%.

On to `COc1ccc(Cn2c(=S)[nH]c3cc(C(=O)NCCCN4CCOCC4)ccc3c2=O)cc1`, for which the cell number change was 18.5%.

Take `CC(=O)Nc1ccc(NC(=O)CSc2nnc(-c3ccco3)n2Cc2ccco2)cc1`: the cell number change is -12.9%. In addition, the AC50 under setting [1] was 0.58 µM [rising, single point].

For the compound `Nc1ncc2c(n1)CCN(c1ccc([N+](=O)[O-])cc1)C2`, the AC50 under setting [1] is 29.1 µM [falling, single point].

In the case of `COc1cccc2sc(NNC(=O)c3nc4ccccc4s3)nc12`, the cell number change is -59.2%. Besides, the AC50 under setting [2] is 29.1 µM [falling, single point]. Further, the AC50 under setting [1] is 18.4 µM [falling, single point].

In the case of `Cc1ccc2c(Cl)cc(Cl)c(OCC(=O)Nc3ccc(C)c(S(=O)(=O)N(C)C)c3)c2n1`, the cell number change turned out to be 4.31%. Moreover, the concentration at half-maximal activity (AC50) under setting [1] is 23.1 µM [rising, partial curve, poor fit].

As for `COc1ccc(NC(=O)CSc2nc3ccsc3c(=O)n2CCC(=O)O)c(OC)c1`, the cell number change was determined as 21.8%.

On to `COc1cc(C(=O)NCCC(=O)NCc2c(F)cc(F)cc2F)cc(OC)c1OC`, for which the cell number change was found to be 14.5%. Besides, the AC50 under setting [1] is 0.164 µM [rising, single point].

Take `CC(C)(C)c1cc(CN(CCO)CCO)cc(C(C)(C)C)c1O`: the cell number change is -39.3%. Moreover, the AC50 under setting [2] is 0.13 µM [falling, full curve, poor fit]. For the same compound, the AC50 under setting [1] was 1.16 µM [falling, full curve].

With `CCOc1ccc(OCCCC(=O)N(CC)CC(=O)Nc2c(F)cccc2F)cc1`, the cell number change was -4.95%. The AC50 under setting [1] is 29.1 µM [falling, single point].

In the case of `Cc1ccc(N2CC(C(=O)Nc3ncc([N+](=O)[O-])s3)CC2=O)cc1` (stereo unspecified), the cell number change was -31.2%. Further, under setting [2], the AC50 was 20.6 µM [falling, single point]. Under setting [1], the AC50 is 29.1 µM [falling, single point].

Consider `COc1ccc(N2CCN(C(=O)c3ccc(CNS(=O)(=O)c4cc(C)ccc4C)cc3)CC2)cc1`, for which the AC50 under setting [1] is 1.64 µM [falling, full curve].

For the compound `O=C(COc1ccc2c3c(c(=O)oc2c1)CCC3)N[C@@H](Cc1ccccc1)C(=O)O`, the cell number change is 42.8%. The AC50 under setting [2] is 18.4 µM [rising, partial curve]. The AC50 under setting [1] is 0.58 µM [rising, single point].

On to `CN(CC(=O)Nc1cccc(F)c1)C(=O)c1ccc(OCC2CCCO2)cc1` (stereo unspecified), for which the cell number change is -13.5%. In addition, the AC50 under setting [1] was 6.51 µM [falling, single point].

Turning to `CC1(C)CC(=O)C2=C(C1)N(c1ccc(F)cc1)C(=O)C2(NC(=O)c1ccccc1)C(F)(F)F` (stereo unspecified), the cell number change was -62.6%. Besides, under setting [2], the AC50 is 29.1 µM [falling, single point]. For the same compound, under setting [1], the AC50 is 6.51 µM [rising, single point].

As to `COc1ccc(/C=C2/CC/C(=C\c3ccc(OC)c(OC)c3OC)C2=O)c(OC)c1OC`, the cell number change was -16.2%. The AC50 under setting [1] was 5.8 µM [rising, partial curve].

As to `Cc1ccc(-n2c(=O)c3sccc3n(CC(=O)NC3CCCC3)c2=O)cc1`, the cell number change is -23.8%.

Regarding `COc1ccc(C(=O)NC(=S)NCc2ccco2)cc1`, the cell number change was 24.5%.

On to `CC1Sc2ccc(C(=O)Nc3ccc(S(=O)(=O)N(C)C)cc3)cc2NC1=O` (stereo unspecified), for which the AC50 under setting [1] is 4.61 µM [falling, partial curve, poor fit].
